## Library screen at single concentrations

The chains behind the UniProt entries cited, without tags or fusion partners. Residues count along the entry.
UniProt Q8IDJ8, 1-583: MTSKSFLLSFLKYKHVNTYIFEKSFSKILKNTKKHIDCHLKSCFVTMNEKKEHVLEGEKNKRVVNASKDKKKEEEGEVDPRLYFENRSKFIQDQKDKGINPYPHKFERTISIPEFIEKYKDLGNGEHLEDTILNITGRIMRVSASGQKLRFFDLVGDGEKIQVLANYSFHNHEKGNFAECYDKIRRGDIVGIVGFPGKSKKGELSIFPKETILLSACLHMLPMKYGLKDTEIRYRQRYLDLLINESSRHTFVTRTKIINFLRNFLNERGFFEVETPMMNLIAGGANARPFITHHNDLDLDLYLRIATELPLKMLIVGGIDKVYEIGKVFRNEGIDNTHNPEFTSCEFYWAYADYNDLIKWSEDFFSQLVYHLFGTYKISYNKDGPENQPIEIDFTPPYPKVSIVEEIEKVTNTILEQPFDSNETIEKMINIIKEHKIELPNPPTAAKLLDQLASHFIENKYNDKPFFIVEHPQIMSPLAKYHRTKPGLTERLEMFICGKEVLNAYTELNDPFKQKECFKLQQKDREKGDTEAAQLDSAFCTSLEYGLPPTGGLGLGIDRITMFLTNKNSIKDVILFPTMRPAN

Toxoplasma: 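Assay of Toxoplasma gondii numbers, read through their beta-galactosidase reporter with a colour substrate. Concentration: 10 µM. The record gives no direction; the compounds picked for IC50 retests had high values, so higher reads as fewer parasites. Size under these conditions: about 67,000 compounds, about 260 of them at 50% or above in at least one test.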
T. brucei: 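Whole-parasite assay of Trypanosoma brucei over 72 hours; the read-out is not stated. Concentration: 30 µM. Higher reads as stronger inhibition (inferred: compounds with an IC50 in retests scored well above the rest). Values scatter widely below zero; nearly all retest evidence comes from the higher of the two concentrations used. Size under these conditions: about 64,000 compounds, about 940 of them at 50% or above in at least one test.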
Leishmania in macrophages: 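Cell assay of Leishmania donovani living inside macrophages; the read-out is not stated. Concentration: 30 µM. The record gives no direction; compounds that gave an IC50 in retests scored well above the rest, so higher reads as stronger inhibition. Of about 69,000 compounds tested this way, about 1,000 (1.5%) reached 50% or more in at least one test.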
PfKRS1: 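Enzyme assay of the cytosolic lysyl-tRNA synthetase in 384-well plates, read by luminescence. Target: Lysine-tRNA ligase, Plasmodium falciparum 3D7 (UniProt Q8IDJ8). Tested at 30 µM. Higher reads as stronger inhibition, judged from the few compounds that gave an IC50. About 69,000 compounds were tested under these conditions; 0.071% (about 49) showed 50% or more at least once.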

Results are given as percent effect. The controls that fix the scale are not given in the record; negative values are as filed. The compounds are a random part of those screened. Two or more numbers in one place are separate tests of the same structure; such repeats can differ widely. A dash means the value is not listed here; it may have been measured.

| compound | Toxoplasma | T. brucei | Leishmania in macrophages | PfKRS1 |
|---|---|---|---|---|
| `CC1(NC(=O)Cc2cccs2)CCS(=O)(=O)C1` (stereo unspecified) | 8.259 | -11.44 | 19.51 | 9.528 |
| `CC(C)c1n[nH]c(C2CN(C(=O)COCC(F)(F)F)CCO2)n1` (stereo unspecified) | 23.32 | 6.312 | 14.26 | 2.114 |
| `COCCO[C@@H]1CCN(C(=O)c2ccnnc2)[C@H]1Cc1cnn(C)c1` | 3.887 | -28.13 | 3.532 | -0.9267 |
| `Cc1ccc(C(=O)N2CC3(CCCCC3)c3cc(C(=O)O)ccc32)cn1.O=C(O)C(F)(F)F` | 13.07 | -2.651 | 22.02 | - |
| `Fc1cnc(N2CC[C@@H]3O[C@H](COCc4ccccn4)CC[C@@H]32)nc1` | - | - | - | 5.795 |
| `Cn1cc(C(=O)NC[C@H]2OC[C@@H]3CCN(C4CCOCC4)C[C@@H]32)cn1` | - | - | - | 2.287 |
| `Cc1cc(NC(=O)NCC2CCOC2)no1` (stereo unspecified) | -19.68 | -26.69 | -0.8019 | 6.783 |
| `Cc1ccc(N2CCC3(CN(Cc4cccs4)CCC3(F)F)C2)nn1.O=C(O)C(F)(F)F` (stereo unspecified) | -0.4216 | -34.83 | 1.848 | - |
| `Cc1csc(CCNC(=O)Nc2cc(C(F)(F)F)c[nH]c2=O)n1` | 6.316 | 3.635 | 2.485 | 6.535 |
| `O=C(O)CC(O)(CC(=O)O)C(=O)O.[H][C@@]12CC[C@@](O)(c3ccccn3)[C@]1([H])CN(Cc1cccc(OC)c1OC)C2` | 18.08 | -12.48 | 6.744 and -3.065 | - |
| `CCc1noc(C)c1C(=O)N1CCN(c2nc(C)cc(OC)n2)CC1` | 1.711 | -25.08 | -7.723 | 3.734 |
| `O=C(O)C(=O)O.c1cc(CN2CCC(c3ccc4c(c3)OCO4)CC2)ccn1` | -19.25 | 13.71 | 22.7 | - |
| `CC(C)n1ccnc1C1CCN(C(=O)c2ccc(SCCO)cc2)CC1` | -30.49 | -31.97 | 19.89 | 1.581 |
| `Cn1nc(CN2CCCCC2)c2c1CN(C(=O)c1ccccc1)C2` | 3.623 | -10.41 | -10.73 | -2.508 |
| `O=C(Cc1cccnc1)N1CCC(c2nnc(-c3ccccn3)o2)CC1` | 18.93 | -18.44 | -15.16 | -1.061 |
| `CO[C@H]1CCN(Cc2cnn(C)c2)[C@@H]2CN(Cc3cccnc3)C[C@H]12` | - | - | - | 0.3848 |
| `CNC(=O)[C@H]1C[C@@H]2CN(C(=O)c3ccc(C)nc3)C[C@@H]2N1C(C)C` | - | - | - | 7.094 |
| `O=C(NC1CC1)c1cc(C(F)(F)F)cc(C(=O)NC2CC2)n1` | 7.976 | - | -3.69 | 1.871 |
| `COc1cnc(C2(O)CCN(C(=O)c3ccco3)CC2)c(OC)n1` | 25.14 | -4.515 | 18.5 and 14.92 | 2.283 |
| `CCn1ccnc1CN1CCN(c2cc(C)nc(C3CCCN3)c2)CC1.Cl` (stereo unspecified) | -13.36 | -5.689 | 15.06 | - |
| `COc1ccc(NC(=O)CCSc2ccc3nncn3n2)c(OC)c1` | - | -25.49 | -3.737 | 1.63 |
| `CN(C)Cc1cncc2c1CCN(Cc1cnn(C)c1)C2.Cl.Cl.Cl` | 4.641 | -33.85 | -10.28 | - |
| `Cc1cc(S(C)(=O)=O)c(C)c(S(=O)(=O)NC2CCCC2)c1` | -4.298 | -30.35 | 4.876 | 2.389 |
| `O=C(O)C(F)(F)F.[H][C@@]12CCN(CC(C)C)[C@@]1([H])CCN2S(=O)(=O)c1cccs1` | -5.598 | -20.88 | -6.748 | - |
| `Cn1ccc(CN2CCC3(CC2)CC(Nc2ccccn2)CO3)n1` (stereo unspecified) | - | - | - | -0.6662 |
| `Cc1ccc2ncn(C(C)Cn3cccn3)c(=O)c2c1` (stereo unspecified) | 16.94 | -6.495 | -19.6 | 1.659 |
| `Cc1cc(C(=O)N2CCCCC2C)ccc1NCCCO` (stereo unspecified) | -1.588 | 12.29 | 16.64 | 2.771 |
| `[H][C@]12CC[C@]([H])(CN(Cc3snnc3C)C1)N(Cc1c(C)noc1C)C2=O` | 9.249 | -38.92 | 3.499 | - |
| `CNC(=O)[C@@H]1[C@H]2CNCCN2C[C@H]1c1ccccc1` | - | - | - | 2.341 |
| `Cc1ccc(CN(C)Cc2ncc(C(C)(C)C)o2)o1` | 29.76 | -43.23 | -16.9 | 3.168 |
| `CC(C)CNC(=O)c1nn(C)c(NC(=O)Cc2ccccc2)c1F` | 11.51 | -6.348 | -7.616 | 7.349 |
| `COc1ccc(CN2CCC3(CC2)CC(CC(=O)NC(C)C)CO3)cc1` (stereo unspecified) | - | - | - | 5.945 |
| `[H][C@@]12CCN(Cc3ccncc3)[C@]1([H])CC[C@H](COCC1CCOCC1)O2` | -5.639 | -734.7 | 35.19 | - |
| `Cc1nccc(NCc2cc3n(n2)CCCN(S(C)(=O)=O)C3)n1` | 5.322 | 6.155 | -9.898 | 8.174 |
| `CS(=O)(=O)N[C@H]1CCO[C@]2(CCN(C(=O)c3ccccn3)C2)C1` | - | - | - | -0.3583 |
| `CC(C)(C)c1noc(CCCC(=O)N2CCNC(=O)CC2)n1` | -5.776 | -60.71 | 21.85 | 0.09239 |
| `CN(C)C(C(=O)N1CCN(C(=O)c2ccc[nH]2)CC1)c1ccc(F)cc1` (stereo unspecified) | 0.3509 | -65.41 | -23.58 | -0.62 |
| `O=C(O)C(F)(F)F.[H][C@@]12COC[C@]1(CN(C)C)CN(C(=O)Cc1ccc3c(c1)OCO3)C2` | -10.76 | 24.04 | 11.94 | - |
| `Cc1cc(N2CCCC(O)(CN(C)C)C2)c2cc3c(cc2n1)OCO3` (stereo unspecified) | 19.61 | 17.65 | 40.79 | 1.042 |
| `COCCc1noc(-c2ccc(N[C@H]3CCCCNC3=O)nc2)n1` | -3.565 | -12.15 | 2.041 | 7.299 |
| `OC1CCN(c2ccccc2NCc2nc(-c3ccoc3)no2)CC1` | -4.003 | -33.64 | 0.06747 | -0.06095 |
| `Cc1cc(S(=O)(=O)N2CCOCC2C#N)ccc1F` (stereo unspecified) | -1.018 | -64.95 | -15.06 | 0.6393 |
| `COCCN(CCOC)C(=O)c1ccn(-c2ccccc2Cl)n1` | -19.94 | -32.57 | -69.88 | -0.9938 |
| `Cc1ccc(S(=O)(=O)NC2=NCN(CCc3cccs3)CN2)cc1` | 1.78 | -17.38 | 2.944 | 1.697 |
| `NC(=O)C1CCCN1C(=O)c1cc(C2CC2)nc2ccc(F)cc12` (stereo unspecified) | -8.266 | -50.95 | 11.97 | 0.1852 |
| `CC(C)Oc1cccc(-c2nc3c([nH]2)CCCNC3=O)c1` | 19.6 | -40 | -7.586 | 1.056 |
| `COCc1nc(N(C)C)ncc1C(=O)Nc1ccc(Cl)cc1` | -1.549 | -7.897 | 30.82 | 1.834 |
| `O=C(NCCc1ccccc1)NCCN1CCC(c2cccs2)CC1` | 18.76 | 47.79 | 51.71 | 5.035 |
| `COc1cccc(CCCn2cnnc2[S+](C)[O-])c1` (stereo unspecified) | 1.787 | -4.89 | -3.61 | -1.753 |
| `O=C(O)C(F)(F)F.[H][C@@]12C[C@H](C(=O)NCC3CC3)CN(CCc3ccccc3)[C@]1([H])CCO2` | -0.5917 | - | -0.5532 | - |
| `O=C(NCCC(=O)N1CCCc2ccccc21)c1c(F)cccc1F` | 10.87 | - | 15.29 | -0.02709 |
| `c1cnc(N2CCCn3c(nnc3Cn3cccn3)C2)nc1` | -19.35 | - | -9.506 | 4.952 |
| `Cc1ccc(CNCC2Cn3nnc(-c4cccc(F)c4)c3CO2)o1` (stereo unspecified) | - | - | - | 5.082 |
| `CN1CCC(NC(=O)Nc2ccc(Br)c(F)c2)C1=O` (stereo unspecified) | -8.651 | -5.081 | -33.59 | 4.79 |
| `CCN(CC)c1ccc(-c2ccc(C)c(S(N)(=O)=O)c2)nn1` | -2.143 | -0.9784 | -2.809 | 3.781 |
| `CN(C)C1CCN(C(=O)c2ccnn2-c2ccc3ccccn23)CC1.O=C(O)C(F)(F)F` | -28.97 | -50.7 | 16.57 | - |

Data taken from ChEMBL document CHEMBL3988442, “University of Dundee, Small-Polar-MMV Screening Library” (2021).